# Measured values published in publication PMC7347136 (PLoS ONE, 2020).
# Experiments:
# Colo205 = assay: Resazurin reduction cell viability assay; type: cell-based; conditions: Homo sapiens, COLO 205; 72 h continuous treatment; read-out: Colo205 IC50 ± SD
# Method: Solid tumor cell lines were seeded in 100 μl medium into 96-well plates at an appropriate cell number determined by a cell dilution assay (Cal51–2000 cells/well; Colo205, MCF10A and 184A1–3000 cells/well and MDA-MB-468, HCC1954–4000 cells/well). AML suspension cells were seeded in 96-well plates at approximately 3000 cells per well. Cells were incubated overnight at 37°C, 5% CO2. The following day, 100 μl fresh medium containing increasing concentrations of appropriate compound was added and the cells were incubated for up to 72 h at 37°C, 5% CO2. For pulse treatment of solid (adherent) tumor cell lines, medium was aspirated and replaced with fresh drug-free medium. For pulse treatment of suspension lines, plates were centrifuged at 478 xg for 5 min at the end of the incubation period with compound, medium containing compound was carefully aspirated and replaced with fresh compound-free medium. A total of 72 h after the start of treatment, 20 μl of a 10X stock of resazurin sodium salt (Sigma-Aldrich, Dorset, UK) prepared in medium was added to the cells and incubated for up to 3 h. […] was measured on the Wallac Victor plate reader (Cambridge, UK) at 544–595 nm. IC50/70/90 calculations were determined in XLFit.
# tumor cells = conditions: read-out: average anti-proliferative activity (IC50); cited from earlier work
structure (smiles),measurement,setting,value
CC[C@H](CO)Nc1nc(NCc2ccccc2)c2ncn(C(C)C)c2n1 [Seliciclib],IC50,Colo205,13.3 µM
same,IC50,tumor cells,~15 µM
